Assay results taken from paper PMC10473914, “Phosphorylation of Ack1 by the Receptor Tyrosine Kinase Mer” (Kinases and phosphatases, 2023).
Results are given in words; binding and its absence hold for the method and conditions named. Binding seen in cells or lysates may run through a third protein. Some entries that bind do so weakly or less than the wild type. Tags and fused reporters may be left off the sequences shown.

T1: Mer receptor tyrosine kinase, full length (UniProt Q60805)
T1 sequence: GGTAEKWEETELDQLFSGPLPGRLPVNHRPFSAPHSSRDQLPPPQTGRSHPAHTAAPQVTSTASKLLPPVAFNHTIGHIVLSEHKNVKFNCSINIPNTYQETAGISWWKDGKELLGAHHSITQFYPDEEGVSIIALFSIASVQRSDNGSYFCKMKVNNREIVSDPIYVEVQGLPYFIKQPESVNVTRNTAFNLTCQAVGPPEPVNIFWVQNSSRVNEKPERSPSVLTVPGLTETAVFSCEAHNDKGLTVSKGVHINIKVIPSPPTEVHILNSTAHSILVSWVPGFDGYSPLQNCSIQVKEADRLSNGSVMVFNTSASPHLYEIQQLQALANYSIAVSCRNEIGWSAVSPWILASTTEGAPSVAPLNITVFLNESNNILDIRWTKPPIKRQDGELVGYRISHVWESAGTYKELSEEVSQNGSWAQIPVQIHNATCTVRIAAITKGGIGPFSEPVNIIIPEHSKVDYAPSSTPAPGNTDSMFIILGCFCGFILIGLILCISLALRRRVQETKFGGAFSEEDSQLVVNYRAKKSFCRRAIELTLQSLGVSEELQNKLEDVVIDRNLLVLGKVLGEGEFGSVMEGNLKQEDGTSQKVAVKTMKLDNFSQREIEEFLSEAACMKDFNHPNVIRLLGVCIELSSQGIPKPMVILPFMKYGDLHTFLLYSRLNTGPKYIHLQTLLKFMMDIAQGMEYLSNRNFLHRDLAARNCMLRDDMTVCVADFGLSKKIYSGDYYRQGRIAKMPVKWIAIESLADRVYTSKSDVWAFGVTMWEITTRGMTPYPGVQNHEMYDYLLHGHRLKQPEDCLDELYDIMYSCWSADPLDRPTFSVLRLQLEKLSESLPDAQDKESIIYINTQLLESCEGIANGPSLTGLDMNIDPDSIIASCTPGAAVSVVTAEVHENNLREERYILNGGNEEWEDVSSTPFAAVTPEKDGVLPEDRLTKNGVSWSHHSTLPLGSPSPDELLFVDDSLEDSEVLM

B1: Flag-tagged full-length Ack1 Y859F (enzyme, UniProt Q07912 1-1038)
chain: MQPEEGTGWLLELLSEVQLQQYFLRLRDDLNVTRLSHFEYVKNEDLEKIGMGRPGQRRLWEAVKRRKALCKRKSWMSKVFSGKRLEAEFPPHHSQSTFRKTSPAPGGPAGEGPLQSLTCLIGEKDLRLLEKLGDGSFGVVRRGEWDAPSGKTVSVAVKCLKPDVLSQPEAMDDFIREVNAMHSLDHRNLIRLYGVVLTPPMKMVTELAPLGSLLDRLRKHQGHFLLGTLSRYAVQVAEGMGYLESKRFIHRDLAARNLLLATRDLVKIGDFGLMRALPQNDDHYVMQEHRKVPFAWCAPESLKTRTFSHASDTWMFGVTLWEMFTYGQEPWIGLNGSQILHKIDKEGERLPRPEDCPQDIYNVMVQCWAHKPEDRPTFVALRDFLLEAQPTDMRALQDFEEPDKLHIQMNDVITVIEGRAENYWWRGQNTRTLCVGPFPRNVVTSVAGLSAQDISQPLQNSFIHTGHGDSDPRHCWGFPDRIDELYLGNPMDPPDLLSVELSTSRPPQHLGGVKKPTYDPVSEDQDPLSSDFKRLGLRKPGLPRGLWLAKPSARVPGTKASRGSGAEVTLIDFGEEPVVPALRPCAPSLAQLAMDACSLLDETPPQSPTRALPRPLHPTPVVDWDARPLPPPPAYDDVAQDEDDFEICSINSTLVGAGVPAGPSQGQTNYAFVPEQARPPPPLEDNLFLPPQGGGKPPSSAQTAEIFQALQQECMRQLQAPAGSPAPSPSPGGDDKPQVPPRVPIPPRPTRPHVQLSPAPPGEEETSQWPGPASPPRVPPREPLSPQGSRTPSPLVPPGSSPLPPRLSSSPGKTMPTTQSFASDPKYATPQVIQAPGPRAGPCILPIVRDGKKVSSTHFYLLPERPSYLERYQRFLREAQSPEEPTPLPVPLLLPPPSTPAPAAPTATVRPMPQAALDPKANFSTNNSNPGARPPPPRATARLPQRGCPGDGPEAGRPADKIQMAMVHGVTTEECQAALQCHGWSVQRAAQYLKVEQLFGLGLRPRGECHKVLEMFDWNLEQAGCHLLGSWGPAHHKR
B2: Flag-tagged full-length Ack1 Y860F (enzyme, UniProt Q07912 1-1038)
chain: MQPEEGTGWLLELLSEVQLQQYFLRLRDDLNVTRLSHFEYVKNEDLEKIGMGRPGQRRLWEAVKRRKALCKRKSWMSKVFSGKRLEAEFPPHHSQSTFRKTSPAPGGPAGEGPLQSLTCLIGEKDLRLLEKLGDGSFGVVRRGEWDAPSGKTVSVAVKCLKPDVLSQPEAMDDFIREVNAMHSLDHRNLIRLYGVVLTPPMKMVTELAPLGSLLDRLRKHQGHFLLGTLSRYAVQVAEGMGYLESKRFIHRDLAARNLLLATRDLVKIGDFGLMRALPQNDDHYVMQEHRKVPFAWCAPESLKTRTFSHASDTWMFGVTLWEMFTYGQEPWIGLNGSQILHKIDKEGERLPRPEDCPQDIYNVMVQCWAHKPEDRPTFVALRDFLLEAQPTDMRALQDFEEPDKLHIQMNDVITVIEGRAENYWWRGQNTRTLCVGPFPRNVVTSVAGLSAQDISQPLQNSFIHTGHGDSDPRHCWGFPDRIDELYLGNPMDPPDLLSVELSTSRPPQHLGGVKKPTYDPVSEDQDPLSSDFKRLGLRKPGLPRGLWLAKPSARVPGTKASRGSGAEVTLIDFGEEPVVPALRPCAPSLAQLAMDACSLLDETPPQSPTRALPRPLHPTPVVDWDARPLPPPPAYDDVAQDEDDFEICSINSTLVGAGVPAGPSQGQTNYAFVPEQARPPPPLEDNLFLPPQGGGKPPSSAQTAEIFQALQQECMRQLQAPAGSPAPSPSPGGDDKPQVPPRVPIPPRPTRPHVQLSPAPPGEEETSQWPGPASPPRVPPREPLSPQGSRTPSPLVPPGSSPLPPRLSSSPGKTMPTTQSFASDPKYATPQVIQAPGPRAGPCILPIVRDGKKVSSTHYFLLPERPSYLERYQRFLREAQSPEEPTPLPVPLLLPPPSTPAPAAPTATVRPMPQAALDPKANFSTNNSNPGARPPPPRATARLPQRGCPGDGPEAGRPADKIQMAMVHGVTTEECQAALQCHGWSVQRAAQYLKVEQLFGLGLRPRGECHKVLEMFDWNLEQAGCHLLGSWGPAHHKR
B3: Flag-tagged full-length Ack1 Y859F/Y860F (enzyme, UniProt Q07912 1-1038)
chain: MQPEEGTGWLLELLSEVQLQQYFLRLRDDLNVTRLSHFEYVKNEDLEKIGMGRPGQRRLWEAVKRRKALCKRKSWMSKVFSGKRLEAEFPPHHSQSTFRKTSPAPGGPAGEGPLQSLTCLIGEKDLRLLEKLGDGSFGVVRRGEWDAPSGKTVSVAVKCLKPDVLSQPEAMDDFIREVNAMHSLDHRNLIRLYGVVLTPPMKMVTELAPLGSLLDRLRKHQGHFLLGTLSRYAVQVAEGMGYLESKRFIHRDLAARNLLLATRDLVKIGDFGLMRALPQNDDHYVMQEHRKVPFAWCAPESLKTRTFSHASDTWMFGVTLWEMFTYGQEPWIGLNGSQILHKIDKEGERLPRPEDCPQDIYNVMVQCWAHKPEDRPTFVALRDFLLEAQPTDMRALQDFEEPDKLHIQMNDVITVIEGRAENYWWRGQNTRTLCVGPFPRNVVTSVAGLSAQDISQPLQNSFIHTGHGDSDPRHCWGFPDRIDELYLGNPMDPPDLLSVELSTSRPPQHLGGVKKPTYDPVSEDQDPLSSDFKRLGLRKPGLPRGLWLAKPSARVPGTKASRGSGAEVTLIDFGEEPVVPALRPCAPSLAQLAMDACSLLDETPPQSPTRALPRPLHPTPVVDWDARPLPPPPAYDDVAQDEDDFEICSINSTLVGAGVPAGPSQGQTNYAFVPEQARPPPPLEDNLFLPPQGGGKPPSSAQTAEIFQALQQECMRQLQAPAGSPAPSPSPGGDDKPQVPPRVPIPPRPTRPHVQLSPAPPGEEETSQWPGPASPPRVPPREPLSPQGSRTPSPLVPPGSSPLPPRLSSSPGKTMPTTQSFASDPKYATPQVIQAPGPRAGPCILPIVRDGKKVSSTHFFLLPERPSYLERYQRFLREAQSPEEPTPLPVPLLLPPPSTPAPAAPTATVRPMPQAALDPKANFSTNNSNPGARPPPPRATARLPQRGCPGDGPEAGRPADKIQMAMVHGVTTEECQAALQCHGWSVQRAAQYLKVEQLFGLGLRPRGECHKVLEMFDWNLEQAGCHLLGSWGPAHHKR

The binders below were run against T1, Mer receptor tyrosine kinase, full length (assay: co-IP; HEK293T lysates (0.8 mg) with 1.4 ug anti-Mer antibody (ab184086) and Protein A-agarose at 4 C overnight; anti-Flag Western blot; cells unstimulated or stimulated with 120 ng/mL Gas6 for 15 min).

binding, binds:
B1, B2, B3
